Laboratory results taken from PubChem BioAssay AID1487 (National Center for Advancing Translational Sciences (NCATS), 2009).
Hit rate of the full screen: of about 200,000 compounds, about 25 (0.01%) were called active. This list was built around the results that the source calls inconclusive (neither active nor inactive); the mix of calls is not that of the screen. Calls come from the whole dose curve; as a rule, active = well fitted inhibition curve with a large enough effect in the signal ratio, with a control signal flat (not every such curve was filed as active); inconclusive = small, poorly fitted or top-dose-only effect, or effect the other way, or a change in a side signal; inactive = flat fitted curve, though single readings scatter; the % refers to the signal ratio. A potency beside an inconclusive call is a rough fit, not a confirmed value.

test: qHTS Assay for Modulators of Lamin A Splicing; conditions: HeLa LMNA splicing GFP/RFP minigene ratio, 48 h; ratio change, negative = inhibition: at 46.1 µM (top of the series) unless noted
Procedure, shortened: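 S3 HeLa stable clones carrying a lamin A-EGFP splicing minigene plus DsRed2 were seeded at 600 cells/well in Opti-MEM with 2% FBS, pin-dosed and incubated 48 h at 37°C. Acumen cytometry (488 nm) gave the GFP/RFP total-intensity ratio.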
% is set by controls: 0 for no effect and ±100 for the full control effect; potency is the fitted concentration of half-maximal effect.

Row | SMILES | ratio change, negative = inhibition | Potency
1 | Cc1ccnn1Cc1cc(C(=O)O)c2ccccc2n1 | inactive: 6.66% [at 9.22 µM] | –
2 | O=C(O)c1cc(N/N=C/c2ccc(N3CCOCC3)s2)ccc1Cl | inactive: 6.64% | –
3 | NC(=O)CSc1nccn1Cc1ccc(Cl)cc1 | inactive: 10.8% [at 46 µM] | –
4 | O=C(CSc1nnnn1Cc1ccccc1)NC1CCCCC1 | inconclusive: 13.2% [at 46 µM] | –
5 | Cc1ccc(NC(=S)/N=C(\N)Nc2nc(C)c3cc(C)c(C)cc3n2)cc1C | – | inconclusive: 20 µM [inhibitor, single point]
6 | CNC(=S)N1CCc2cc(OC)c(OC)cc2C1COc1ccc(OC)cc1 (stereo unspecified) | inconclusive: -17% [at 46 µM] | –
7 | COc1cccc(NC(=O)CCNS(=O)(=O)c2ccc3c(c2)CCCC(=O)N3)c1 | inactive: -2.39% [at 46 µM] | –
8 | Cn1c(SCc2ccccc2)nnc1-c1ccncc1 | inactive: 0.737% | –
9 | O=C(c1cccc(F)c1)N1CCC(N2CCOCC2)CC1 | inactive: 2.05% | –
10 | O=C(CN1CCN(S(=O)(=O)c2cc(Cl)ccc2Cl)CC1)Nc1ccc2c(c1)OCCO2 | inactive: -12.3% | –
11 | CN1CC[C@H](CN2c3ccccc3Sc3ccccc32)C1 | inconclusive: -19.5% | –
12 | Cc1ccc(CNC(=O)[C@H](C)[C@H]2C[C@]2(C)[C@H](NC(=O)OCc2ccccc2)c2ccccc2)o1 | inconclusive: -29.6% | –
13 | N#Cc1cc(-c2cccc(Cl)c2)c[nH]c1=O | inactive: -5.59% | –
14 | NC(=O)Cc1ccc2sc(-c3ccccc3)nc2c1 | inconclusive: -40.1% | –
15 | Cc1ccc2nc(SC(Cc3cc(Cl)ccc3Cl)C(=O)O)[nH]c2c1 (stereo unspecified) | inconclusive: -4.76% [at 46 µM] | –
16 | COc1ccc(N2CCN(C(=O)c3cc4c(=O)n(Cc5cccs5)ccc4nc3C)CC2)cc1 | inconclusive: -34.2% [at 46 µM] | –
17 | CN1C2CCC1CC(OC(c1ccccc1)c1ccccc1)C2 (stereo unspecified) | inconclusive: -38.2% | –
18 | CCN(CC)C(=O)CSc1nnc([C@H](Cc2c[nH]c3ccccc23)NC(=O)OC(C)(C)C)o1 | inconclusive: 0.169% | –
19 | CC(O)C(=O)O (stereo unspecified) | inconclusive: -4.25% | –
20 | CC(C)CC(C(=O)NCCc1ccccc1)N1Cc2ccccc2C1=O (stereo unspecified) | inactive: -6.38% [at 46 µM] | –
21 | CN(C)CCOC(c1ccccc1)c1ccccc1 | inconclusive: -19.4% | –

Row | SMILES | ratio change, negative = inhibition | Potency
22 | Cc1cccc(NC(=O)c2c(C)nn(-c3ccccc3)c2Cl)c1 | inconclusive: 29.3% [at 46 µM] | –
23 | C[C@H]1C[C@@H]2[C@@H]([C@@H](O)C[C@@]3(C)[C@H]2CC[C@]3(O)C(=O)CO)[C@@]2(C)C=CC(=O)C=C12 | – | inconclusive: 0.0009 µM [inhibitor, full curve, poor fit]
24 | CN(C)S(=O)(=O)c1ccc(C(=O)Nc2ccc(CN3CCCC3)cc2)cc1 | inconclusive: 37.7% | –
25 | O=S(=O)(NCC(c1ccco1)N1CCN(c2ccccc2F)CC1)c1ccc2c(c1)OCCO2 (stereo unspecified) | – | inconclusive: 11.2 µM [falling, partial curve]
26 | COCc1nnc(SCC(=O)Nc2cccc(Cl)c2C)n1-c1ccccc1 | inconclusive: 12.4% | –
27 | O=C(NCc1ccco1)/C(=C\C=C\c1ccccc1)NC(=O)c1ccccc1Br | – | inconclusive: 25.1 µM [rising, partial curve]
28 | CCOC(=O)CCNCc1ccc(F)cc1 | inconclusive: 20.7% [at 46 µM] | –
29 | CC(C)(Oc1cccc2ccccc12)C(=O)O | inconclusive: 0.132% | –
30 | COc1ccc(C(c2c(O)nc(SC)n(C)c2=O)c2c(O)nc(SC)n(C)c2=O)cc1O | inactive: 0.628% | –
31 | CC1CC2(CC(C)(C(=O)CSc3n[nH]c(-c4ccccc4Cl)n3)OC2=O)C(=O)O1 (stereo unspecified) | inactive: -9.45% | –
32 | O=C(Cn1cc(S(=O)(=O)Cc2ccccc2F)c2ccccc21)NCc1ccccc1Cl | inconclusive: -11.8% [at 46 µM] | –
33 | Cc1noc(C)c1C(=O)N1CCN(Cc2ccccc2)CC1 | inactive: 5.97% | –
34 | CCCCOC(=O)CNc1n[nH]c(=S)[nH]c1=O | inactive: 21.7% | –
35 | Cc1nnc(SCC(=O)Nc2cccc(C(F)(F)F)c2)n1Cc1ccco1 | inconclusive: 5.13% | –
36 | CCOC(=O)c1c(C)oc2c1c(C(c1ccccc1)N1CCOCC1)c(O)c1ccccc12 (stereo unspecified) | inactive: 6.51% | –
37 | Cc1cc(C)c(C#N)c(SCC(=O)N(C)C2CCCCC2)n1 | – | inconclusive: 3.16 µM [fluorescent, single point]
38 | Cc1ccc(C(=O)Nc2ncc3c(n2)CC(c2ccco2)CC3=O)cc1 (stereo unspecified) | inactive: 9.67% | –
39 | CC(Sc1nnc(NCc2ccccc2)s1)C(=O)Nc1ccc2c(c1)C(=O)c1ccccc1C2=O (stereo unspecified) | inactive: -10.1% | –
40 | O=C(Nc1cccnc1)c1ccc(Br)s1 | inconclusive: -35.9% | –
41 | C=CCn1c(=N)c(C(=O)NCCCOC)cc2c(=O)n3ccccc3nc21 | inconclusive: 6.68% | –

A draw from above in order of SMILES length, largest number first:
Row | SMILES | ratio change, negative = inhibition | Potency
41 | C=CCn1c(=N)c(C(=O)NCCCOC)cc2c(=O)n3ccccc3nc21 | inconclusive: 6.68% | –
26 | COCc1nnc(SCC(=O)Nc2cccc(Cl)c2C)n1-c1ccccc1 | inconclusive: 12.4% | –
29 | CC(C)(Oc1cccc2ccccc12)C(=O)O | inconclusive: 0.132% | –
